Source: doi:10.1101/2020.10.07.329979
These are yes or no findings as the source states them, for the method shown. Binding seen in cells or lysates may run through a third protein. Some binding calls cover weakened binding; strength is not graded here. Tags and fused reporters may be left off the sequences shown. Blank lines part the entries; values can stand above or below the binder they belong to.

What was measured:
[1] = target: T1, FBN2 fused to the N-terminal half of YFP (Arabidopsis thaliana) (UniProt O82291); assay: split reporter
T1 sequence: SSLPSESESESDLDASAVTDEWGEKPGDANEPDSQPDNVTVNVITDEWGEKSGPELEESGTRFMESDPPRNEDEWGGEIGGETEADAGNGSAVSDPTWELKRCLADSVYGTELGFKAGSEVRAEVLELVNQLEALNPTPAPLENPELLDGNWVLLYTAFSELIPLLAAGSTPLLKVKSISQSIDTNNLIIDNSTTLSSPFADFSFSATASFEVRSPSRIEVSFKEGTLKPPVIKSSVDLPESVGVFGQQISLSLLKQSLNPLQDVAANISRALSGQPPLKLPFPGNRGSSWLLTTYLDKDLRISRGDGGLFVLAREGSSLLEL

[2] = target: T2, FBN1a fused to the N-terminal half of YFP (Arabidopsis thaliana) (UniProt O81439); assay: split reporter
T2 sequence: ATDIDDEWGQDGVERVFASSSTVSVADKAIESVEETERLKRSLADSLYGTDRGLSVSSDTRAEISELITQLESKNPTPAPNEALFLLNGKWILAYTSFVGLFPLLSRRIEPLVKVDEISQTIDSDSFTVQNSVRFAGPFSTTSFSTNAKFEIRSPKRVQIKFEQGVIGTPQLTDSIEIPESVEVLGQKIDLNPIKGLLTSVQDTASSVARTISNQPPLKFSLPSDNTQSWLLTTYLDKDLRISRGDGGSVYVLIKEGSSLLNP

binding [1]: binds
B1: FBN2 fused to the N-terminal half of YFP (protein, UniProt O82291 54-376)
chain: T1 sequence

binding [1]: binds
B2: FBN1a fused to the C-terminal moiety of CFP (protein, UniProt O81439 56-318)
chain: T2 sequence

binding [2]: binds
binding [1]: binds
B3: AOS fused to the C-terminal moiety of CFP (enzyme, UniProt Q96242 34-518)
chain: SGSETPDLTVATRTGSKDLPIRNIPGNYGLPIVGPIKDRWDYFYDQGAEEFFKSRIRKYNSTVYRVNMPPGAFIAENPQVVALLDGKSFPVLFDVDKVEKKDLFTGTYMPSTELTGGYRILSYLDPSEPKHEKLKNLLFFLLKSSRNRIFPEFQATYSELFDSLEKELSLKGKADFGGSSDGTAFNFLARAFYGTNPADTKLKADAPGLITKWVLFNLHPLLSIGLPRVIEEPLIHTFSLPPALVKSDYQRLYEFFLESAGEILVEADKLGISREEATHNLLFATCFNTWGGMKILFPNMVKRIGRAGHQVHNRLAEEIRSVIKSNGGELTMGAIEKMELTKSVVYECLRFEPPVTAQYGRAKKDLVIESHDAAFKVKAGEMLYGYQPLATRDPKIFDRADEFVPERFVGEEGEKLLRHVLWSNGPETETPTVGNKQCAGKDFVVLVARLFVIEIFRRYDSFDIEVGTSPLGSSVNFSSLRKASF
